PubChem BioAssay AID743454 | Peter MacCallum Cancer Centre, 2014
In all, the deposit lists about 18,000 reagents; below is a part drawn at random. Of all reagents, 450 (2.5%) were called active. 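Single biological run; no consistent viability z cut-off exists, so the class columns, not z-scores, define the calls.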 Reagents against one gene are numbered here.

Purpose: 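Search for knock-downs that restore vorinostat killing in resistant colon cancer cells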 (primary screen)
System: human HCT116-VR colon cancer cells, selected for vorinostat resistance
Reagent: siRNA pool against human genes, 40 nM siRNA pool
Duration: vorinostat for 24 h, read-out about 72 h after transfection
Conditions: vorinostat at 2.5 µM final
Measurement: 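Two measures, CellTiter-Fluor viability and luminescent caspase 3/7 activity, each as fold change against same-plate mock wells, mean of duplicates, then screen-wide robust z-score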
Direction: viability robust z-score: higher = more viable cells than screen typical; caspase robust z-score: higher = more caspase 3/7 activity than screen typical
Call rule: 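a knock-down is a hit when classed RV1 or RV2 for lowered viability, or CA1 or CA2 for caspase activation; those lethal without drug were dropped; hits were retested singly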

| target gene | reagent no. | viability hit class | caspase hit class | viability robust z-score | caspase robust z-score | outcome |
| --- | --- | --- | --- | --- | --- | --- |
| ACD | 1 | no change | no change | 0.24 | -0.17 | inactive |
| LRRC55 | 1 | no change | no change | -0.52 | 2.64 | inactive |
| CABLES1 | 1 | no change | no change | -0.38 | -0.96 | inactive |
| ZNF185 | 1 | no change | no change | 0 | 4.56 | inactive |
| PREPL | 1 | no change | no change | 0.82 | -0.22 | inactive |
| KIF13A | 1 | no change | no change | -0.24 | -0.78 | inactive |
| DET1 | 1 | no change | no change | -0.72 | 2.15 | inactive |
| KCNS3 | 1 | no change | no change | -0.2 | -0.06 | inactive |
| S100A1 | 1 | no change | no change | 1.23 | 3.91 | inactive |
| PATE1 | 1 | no change | no change | 0.1 | -0.26 | inactive |
| GCKR | 1 | no change | no change | -0.08 | 3.35 | inactive |
| ZNF19 | 1 | no change | no change | -0.58 | 1.96 | inactive |
| FZD1 | 1 | no change | no change | 1.46 | 0.66 | inactive |
| TAOK1 | 1 | no change | no change | -1.63 | -0.28 | inactive |
| HPD | 1 | no change | no change | -0.11 | -1.03 | inactive |
| TAS2R60 | 1 | no change | no change | 1.85 | 0.08 | inactive |
| PPP1R9B | 1 | no change | no change | -0.15 | -0.47 | inactive |
| SERP2 | 1 | no change | no change | 0.04 | -1.46 | inactive |
| PPP1R3F | 1 | no change | no change | 0.26 | -0.28 | inactive |
| APCS | 1 | no change | no change | 1 | -0.76 | inactive |
| RRAGB | 1 | no change | no change | 0.96 | -0.95 | inactive |
| LMAN1L | 1 | no change | no change | -0.22 | 0.55 | inactive |
| MFRP | 1 | no change | no change | 0.34 | -0.09 | inactive |
| MRPS16 | 1 | no change | no change | 0.04 | 0.25 | inactive |
| ORC3 | 1 | no change | no change | 0.22 | -0.49 | inactive |
| AK9 | 1 | no change | no change | -0.88 | -0.52 | inactive |
| AK9 | 2 | no change | no change | -0.14 | -0.27 | inactive |
| AK9 | 3 | no change | no change | -1.25 | 0.74 | inactive |
| FGR | 1 | no change | no change | -0.29 | 2.53 | inactive |
| MCL1 | 1 | no change | no change | -0.17 | 1.29 | inactive |
| SPTLC1 | 1 | no change | no change | -0.61 | 3.08 | inactive |
| FHL2 | 1 | no change | no change | -0.38 | 0.37 | inactive |
| PRR35 | 1 | no change | no change | -1.08 | 3.48 | inactive |
| PRRX1 | 1 | no change | no change | 1.66 | -0.48 | inactive |
| HACD2 | 1 | no change | no change | -0.22 | -0.22 | inactive |
| CATSPERE | 1 | no change | no change | 1.3 | -0.78 | inactive |
| TNFRSF9 | 1 | no change | no change | -1.36 | 2.01 | inactive |
| NLRP12 | 1 | no change | no change | -0.44 | 1.33 | inactive |
| KCTD21 | 1 | no change | no change | 0.1 | 2.62 | inactive |
| WDR74 | 1 | no change | no change | -1.48 | -0.7 | inactive |
| BTNL2 | 1 | no change | no change | 0.29 | -0.5 | inactive |
| LGALS12 | 1 | no change | no change | 0.86 | 0.46 | inactive |
| SDR16C5 | 1 | no change | no change | 0.5 | -0.66 | inactive |
| HCFC1 | 1 | no change | no change | -1.28 | -0.3 | inactive |
| SLC9A2 | 1 | no change | no change | -0.2 | 0.01 | inactive |
| FAM9C | 1 | no change | no change | -0.49 | -1.02 | inactive |
| ICAM5 | 1 | no change | no change | -0.55 | 0.15 | inactive |
| SCAND3 | 1 | no change | no change | 0.51 | -1.21 | inactive |
| ENKD1 | 1 | no change | no change | -0.7 | -0.32 | inactive |
| DYNLT5 | 1 | no change | no change | -1.83 | 3.19 | inactive |
| DEF8 | 1 | no change | no change | 1.14 | -0.15 | inactive |
| FUT9 | 1 | no change | no change | -0.38 | -0.34 | inactive |
| UBE2W | 1 | no change | no change | -0.47 | 0.03 | inactive |
| AADACL4 | 1 | no change | no change | 1.33 | -0.31 | inactive |
| JAG1 | 1 | no change | no change | -0.39 | 1.01 | inactive |
| FOXP3 | 1 | no change | no change | 1.34 | 0.68 | inactive |
| HIVEP1 | 1 | no change | no change | -0.47 | -1.1 | inactive |

7 successive entries from above, for reference:
| target gene | reagent no. | viability hit class | caspase hit class | viability robust z-score | caspase robust z-score | outcome |
| --- | --- | --- | --- | --- | --- | --- |
| FZD1 | 1 | no change | no change | 1.46 | 0.66 | inactive |
| TAOK1 | 1 | no change | no change | -1.63 | -0.28 | inactive |
| HPD | 1 | no change | no change | -0.11 | -1.03 | inactive |
| TAS2R60 | 1 | no change | no change | 1.85 | 0.08 | inactive |
| PPP1R9B | 1 | no change | no change | -0.15 | -0.47 | inactive |
| SERP2 | 1 | no change | no change | 0.04 | -1.46 | inactive |
| PPP1R3F | 1 | no change | no change | 0.26 | -0.28 | inactive |
